The other results are listed elsewhere or left out.
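Further: competitive chemoproteomic profiling in live THP-1 cells with an iodoacetamide desthiobiotin (IA-DTB) probe, comparing probe-labelled peptide intensities in compound-treated cells against DMSO-treated controls.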

By UniProt entry, the sequences of proteins in these tests, tags left out. Where a name states a change or a piece, a line headed by the entry shows the natural chain unless it says otherwise.
UniProt Q92621: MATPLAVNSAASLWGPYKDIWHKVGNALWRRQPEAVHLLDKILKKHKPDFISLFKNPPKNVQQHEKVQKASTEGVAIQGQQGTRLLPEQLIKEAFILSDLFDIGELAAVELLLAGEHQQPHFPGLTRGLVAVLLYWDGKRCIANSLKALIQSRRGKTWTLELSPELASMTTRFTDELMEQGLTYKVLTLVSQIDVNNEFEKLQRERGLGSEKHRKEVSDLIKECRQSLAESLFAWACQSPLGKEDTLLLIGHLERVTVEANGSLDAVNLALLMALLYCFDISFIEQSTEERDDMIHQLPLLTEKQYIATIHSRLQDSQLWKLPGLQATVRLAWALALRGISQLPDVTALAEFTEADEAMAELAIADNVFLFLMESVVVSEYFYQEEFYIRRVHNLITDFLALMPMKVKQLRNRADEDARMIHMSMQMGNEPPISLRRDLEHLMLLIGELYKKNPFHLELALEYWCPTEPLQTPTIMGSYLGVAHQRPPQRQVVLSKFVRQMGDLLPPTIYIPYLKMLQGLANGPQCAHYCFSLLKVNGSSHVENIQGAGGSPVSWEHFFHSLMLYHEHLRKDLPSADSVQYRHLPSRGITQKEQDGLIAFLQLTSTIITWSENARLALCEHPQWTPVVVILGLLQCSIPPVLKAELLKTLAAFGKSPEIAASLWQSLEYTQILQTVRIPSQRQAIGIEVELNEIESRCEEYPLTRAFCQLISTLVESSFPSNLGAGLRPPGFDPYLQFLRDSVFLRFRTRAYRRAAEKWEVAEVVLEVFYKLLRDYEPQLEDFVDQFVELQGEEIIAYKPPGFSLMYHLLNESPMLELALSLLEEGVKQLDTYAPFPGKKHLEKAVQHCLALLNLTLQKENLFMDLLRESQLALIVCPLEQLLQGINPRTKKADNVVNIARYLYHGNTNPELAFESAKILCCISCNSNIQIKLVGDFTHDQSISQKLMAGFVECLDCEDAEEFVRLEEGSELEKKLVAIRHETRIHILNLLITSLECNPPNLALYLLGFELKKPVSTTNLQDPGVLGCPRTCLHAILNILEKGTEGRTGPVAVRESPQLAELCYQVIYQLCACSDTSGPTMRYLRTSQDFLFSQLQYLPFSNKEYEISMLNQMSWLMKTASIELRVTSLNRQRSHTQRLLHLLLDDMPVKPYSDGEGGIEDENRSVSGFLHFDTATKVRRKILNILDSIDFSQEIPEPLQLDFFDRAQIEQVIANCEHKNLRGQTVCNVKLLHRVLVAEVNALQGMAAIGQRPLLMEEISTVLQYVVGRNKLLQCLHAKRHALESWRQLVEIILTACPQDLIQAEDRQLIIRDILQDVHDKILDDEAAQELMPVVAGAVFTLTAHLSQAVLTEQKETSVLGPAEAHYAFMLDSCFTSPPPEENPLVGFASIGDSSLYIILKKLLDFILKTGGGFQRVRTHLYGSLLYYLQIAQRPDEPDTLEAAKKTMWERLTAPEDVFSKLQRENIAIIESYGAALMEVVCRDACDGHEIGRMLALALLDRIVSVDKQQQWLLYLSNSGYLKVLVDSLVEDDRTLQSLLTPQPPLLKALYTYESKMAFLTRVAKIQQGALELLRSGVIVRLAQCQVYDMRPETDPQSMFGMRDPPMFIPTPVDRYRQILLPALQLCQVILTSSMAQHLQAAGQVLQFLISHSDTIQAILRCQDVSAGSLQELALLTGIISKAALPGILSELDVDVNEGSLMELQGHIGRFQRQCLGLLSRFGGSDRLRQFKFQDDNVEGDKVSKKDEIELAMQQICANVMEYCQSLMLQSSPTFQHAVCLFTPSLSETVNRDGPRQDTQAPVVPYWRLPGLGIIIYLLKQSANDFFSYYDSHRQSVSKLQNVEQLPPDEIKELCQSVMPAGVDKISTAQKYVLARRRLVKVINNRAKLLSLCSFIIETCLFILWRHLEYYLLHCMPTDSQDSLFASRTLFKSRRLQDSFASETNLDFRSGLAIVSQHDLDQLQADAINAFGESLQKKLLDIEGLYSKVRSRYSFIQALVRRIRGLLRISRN
UniProt Q02218: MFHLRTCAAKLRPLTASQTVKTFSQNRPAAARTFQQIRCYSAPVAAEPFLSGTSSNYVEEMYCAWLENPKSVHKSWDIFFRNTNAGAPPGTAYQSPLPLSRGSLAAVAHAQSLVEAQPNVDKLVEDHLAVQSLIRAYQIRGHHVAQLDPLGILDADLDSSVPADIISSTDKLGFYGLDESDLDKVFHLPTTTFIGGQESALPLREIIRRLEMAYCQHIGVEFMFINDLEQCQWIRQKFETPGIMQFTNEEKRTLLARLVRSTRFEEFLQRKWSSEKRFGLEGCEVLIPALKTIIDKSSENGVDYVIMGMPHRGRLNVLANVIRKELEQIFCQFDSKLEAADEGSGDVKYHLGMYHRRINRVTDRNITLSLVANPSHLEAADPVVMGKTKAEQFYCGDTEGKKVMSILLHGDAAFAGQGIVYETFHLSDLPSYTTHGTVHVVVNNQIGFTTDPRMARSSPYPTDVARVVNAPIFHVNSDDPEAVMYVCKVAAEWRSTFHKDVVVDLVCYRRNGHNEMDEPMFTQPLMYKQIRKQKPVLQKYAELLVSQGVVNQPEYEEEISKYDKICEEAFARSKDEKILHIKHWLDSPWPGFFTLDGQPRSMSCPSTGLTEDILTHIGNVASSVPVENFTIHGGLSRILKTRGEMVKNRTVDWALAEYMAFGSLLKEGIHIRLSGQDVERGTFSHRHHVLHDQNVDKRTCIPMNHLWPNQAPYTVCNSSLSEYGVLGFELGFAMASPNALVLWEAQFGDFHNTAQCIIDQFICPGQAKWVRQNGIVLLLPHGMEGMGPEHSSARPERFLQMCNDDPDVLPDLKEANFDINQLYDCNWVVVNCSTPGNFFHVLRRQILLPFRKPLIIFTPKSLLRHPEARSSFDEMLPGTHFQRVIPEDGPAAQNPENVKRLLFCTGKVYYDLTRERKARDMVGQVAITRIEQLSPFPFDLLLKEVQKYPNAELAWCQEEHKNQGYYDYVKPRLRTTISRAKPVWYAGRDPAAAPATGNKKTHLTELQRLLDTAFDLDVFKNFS
UniProt P49757: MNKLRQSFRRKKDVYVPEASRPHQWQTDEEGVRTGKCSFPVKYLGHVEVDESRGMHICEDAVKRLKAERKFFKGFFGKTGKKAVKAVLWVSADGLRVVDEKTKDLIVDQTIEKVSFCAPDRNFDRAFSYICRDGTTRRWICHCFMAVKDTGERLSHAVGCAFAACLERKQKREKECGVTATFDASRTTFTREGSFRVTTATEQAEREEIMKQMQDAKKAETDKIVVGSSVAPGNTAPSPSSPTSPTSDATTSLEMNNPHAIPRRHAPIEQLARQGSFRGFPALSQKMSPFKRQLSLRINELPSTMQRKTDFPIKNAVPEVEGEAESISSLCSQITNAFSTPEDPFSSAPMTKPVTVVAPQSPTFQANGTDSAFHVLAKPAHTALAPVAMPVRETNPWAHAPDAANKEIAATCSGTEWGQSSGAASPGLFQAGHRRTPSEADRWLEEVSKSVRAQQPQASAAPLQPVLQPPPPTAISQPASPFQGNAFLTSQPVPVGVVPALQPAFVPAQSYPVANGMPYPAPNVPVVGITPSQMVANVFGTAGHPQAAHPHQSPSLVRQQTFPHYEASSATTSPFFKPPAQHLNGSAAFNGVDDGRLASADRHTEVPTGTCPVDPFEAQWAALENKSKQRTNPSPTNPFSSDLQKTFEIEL
UniProt Q9UBU9: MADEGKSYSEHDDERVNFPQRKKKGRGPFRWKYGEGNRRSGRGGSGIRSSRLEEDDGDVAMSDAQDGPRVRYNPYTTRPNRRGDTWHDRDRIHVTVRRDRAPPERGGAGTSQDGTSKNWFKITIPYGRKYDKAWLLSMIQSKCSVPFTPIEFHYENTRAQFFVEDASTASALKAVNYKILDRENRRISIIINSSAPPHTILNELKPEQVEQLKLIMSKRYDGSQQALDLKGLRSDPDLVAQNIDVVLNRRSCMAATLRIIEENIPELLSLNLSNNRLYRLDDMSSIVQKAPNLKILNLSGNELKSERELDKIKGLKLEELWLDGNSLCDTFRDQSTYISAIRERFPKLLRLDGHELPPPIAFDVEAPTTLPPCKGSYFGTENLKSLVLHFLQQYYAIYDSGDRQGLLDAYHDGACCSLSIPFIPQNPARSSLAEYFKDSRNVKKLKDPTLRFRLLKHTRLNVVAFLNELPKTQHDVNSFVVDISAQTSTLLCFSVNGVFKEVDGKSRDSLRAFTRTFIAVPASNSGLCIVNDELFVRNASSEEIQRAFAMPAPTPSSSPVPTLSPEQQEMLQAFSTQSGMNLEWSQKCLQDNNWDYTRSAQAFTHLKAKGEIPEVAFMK
UniProt Q6PK18: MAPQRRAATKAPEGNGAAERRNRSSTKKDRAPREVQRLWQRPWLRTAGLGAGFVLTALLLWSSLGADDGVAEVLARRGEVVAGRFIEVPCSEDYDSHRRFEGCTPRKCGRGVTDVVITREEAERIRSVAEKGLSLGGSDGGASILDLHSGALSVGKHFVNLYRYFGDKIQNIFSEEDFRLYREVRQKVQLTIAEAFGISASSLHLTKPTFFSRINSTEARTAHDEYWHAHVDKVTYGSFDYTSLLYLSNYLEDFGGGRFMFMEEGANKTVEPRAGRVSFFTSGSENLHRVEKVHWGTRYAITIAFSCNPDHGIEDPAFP
UniProt Q01968: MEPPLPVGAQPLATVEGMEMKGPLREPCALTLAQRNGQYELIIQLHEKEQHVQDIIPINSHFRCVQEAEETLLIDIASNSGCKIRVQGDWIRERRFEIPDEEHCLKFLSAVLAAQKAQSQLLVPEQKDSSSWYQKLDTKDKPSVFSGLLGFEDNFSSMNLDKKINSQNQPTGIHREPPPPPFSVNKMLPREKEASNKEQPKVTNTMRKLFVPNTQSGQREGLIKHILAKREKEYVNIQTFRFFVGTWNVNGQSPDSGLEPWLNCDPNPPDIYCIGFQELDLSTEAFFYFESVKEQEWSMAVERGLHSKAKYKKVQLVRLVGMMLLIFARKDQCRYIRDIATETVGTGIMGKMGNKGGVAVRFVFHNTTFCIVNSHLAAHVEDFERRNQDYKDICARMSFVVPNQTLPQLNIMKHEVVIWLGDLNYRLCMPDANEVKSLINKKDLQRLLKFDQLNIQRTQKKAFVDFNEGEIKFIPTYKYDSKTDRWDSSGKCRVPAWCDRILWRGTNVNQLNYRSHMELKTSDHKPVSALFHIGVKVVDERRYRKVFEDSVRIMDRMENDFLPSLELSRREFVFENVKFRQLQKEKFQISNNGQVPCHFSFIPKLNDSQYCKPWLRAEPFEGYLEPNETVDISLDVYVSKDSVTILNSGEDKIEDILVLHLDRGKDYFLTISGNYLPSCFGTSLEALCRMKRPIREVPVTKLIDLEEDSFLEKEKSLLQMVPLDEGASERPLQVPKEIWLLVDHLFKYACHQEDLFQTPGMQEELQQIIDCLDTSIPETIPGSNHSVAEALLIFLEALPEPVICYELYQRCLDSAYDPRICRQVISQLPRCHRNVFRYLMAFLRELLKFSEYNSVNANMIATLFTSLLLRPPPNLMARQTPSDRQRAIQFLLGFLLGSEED
UniProt P29728: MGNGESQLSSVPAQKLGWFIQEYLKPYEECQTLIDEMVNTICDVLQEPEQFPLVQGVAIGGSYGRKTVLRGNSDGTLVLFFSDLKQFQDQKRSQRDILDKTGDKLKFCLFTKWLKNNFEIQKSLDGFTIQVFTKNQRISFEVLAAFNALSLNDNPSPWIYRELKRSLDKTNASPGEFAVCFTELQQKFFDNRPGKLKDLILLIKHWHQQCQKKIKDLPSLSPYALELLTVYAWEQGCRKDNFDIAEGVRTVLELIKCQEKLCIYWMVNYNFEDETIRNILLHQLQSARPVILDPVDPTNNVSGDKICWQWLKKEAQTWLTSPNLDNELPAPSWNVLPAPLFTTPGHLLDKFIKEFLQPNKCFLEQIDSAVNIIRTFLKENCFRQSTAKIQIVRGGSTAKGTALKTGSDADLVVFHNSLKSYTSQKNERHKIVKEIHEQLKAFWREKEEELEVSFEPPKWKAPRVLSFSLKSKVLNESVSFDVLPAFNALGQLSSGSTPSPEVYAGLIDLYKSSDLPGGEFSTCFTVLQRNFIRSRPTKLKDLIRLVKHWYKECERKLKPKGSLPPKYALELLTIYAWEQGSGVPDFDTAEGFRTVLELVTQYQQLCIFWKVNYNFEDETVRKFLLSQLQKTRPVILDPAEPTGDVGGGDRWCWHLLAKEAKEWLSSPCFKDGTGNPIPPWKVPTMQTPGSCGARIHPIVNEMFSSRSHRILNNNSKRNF
UniProt Q9NX40: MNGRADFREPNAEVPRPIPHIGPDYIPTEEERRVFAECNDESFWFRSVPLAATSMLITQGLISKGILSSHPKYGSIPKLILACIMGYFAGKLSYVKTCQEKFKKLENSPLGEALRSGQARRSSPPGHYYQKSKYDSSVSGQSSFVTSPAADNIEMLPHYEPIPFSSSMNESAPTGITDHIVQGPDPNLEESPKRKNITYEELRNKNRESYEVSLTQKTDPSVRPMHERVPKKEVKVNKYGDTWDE

Compound in one experiment: CC1Cc2ccccc2N1C(=O)C1CCCN(C1)C(=O)CCl (mixture of isomers) [TRIM25 ligand 11 (diastereomer mixture)]
In words: probe-labelled cysteine peptide fold change vs DMSO (competition) (log2 fold change); higher = less target engagement (more negative = stronger competition). The following applies: 10 µM; THP-1; incubation time: 4 h.
“NUP153_P49790_874_CLACESAKPGTK (UniProt P49790)”: the “probe-labelled cysteine peptide fold change” value was -0.0887.

“NUP93_Q8N1F7_569_CVSELVIESR (UniProt Q8N1F7)”: the “probe-labelled cysteine peptide fold change” value was 0.425.

Turning to “OFD1_O75665_503_AIVVEHEEFESCR (UniProt O75665)”, the “probe-labelled cysteine peptide fold change” value was 0.26.

For “NUP93_Q8N1F7_328_CGDLLAASQVVNR (UniProt Q8N1F7)”, the “probe-labelled cysteine peptide fold change” value came out at 0.0268.

On to “NUP205_Q92621_1216_AQIEQVIANCEHK (UniProt Q92621)”, for which the “probe-labelled cysteine peptide fold change” value turned out to be 0.206.

For “OGDH_Q02218_487_VVNAPIFHVNSDDPEAVMYVCK (UniProt Q02218)”, the “probe-labelled cysteine peptide fold change” value was -0.106.

With “NUDT2_P50583_143_AALQEGHQFLCSIEA (UniProt P50583)”, the “probe-labelled cysteine peptide fold change” value was -0.0972.

“NUMB_P49757_176_ECGVTATFDASR (UniProt P49757)”: the “probe-labelled cysteine peptide fold change” value is -0.00986.

Turning to “NUP155_O75694_1344_YVENPSQVLNCER (UniProt O75694)”, the “probe-labelled cysteine peptide fold change” value was found to be 0.0277.

For “ODR4_Q5SWX8_77_AKLDNLDEEWATEHACQVSR (UniProt Q5SWX8)”, the “probe-labelled cysteine peptide fold change” value turned out to be 0.0231.

For “NUBP2_Q9Y5Y2_54_KVGILDVDLCGPSIPR (UniProt Q9Y5Y2)”, the “probe-labelled cysteine peptide fold change” value is -0.0291.

Take “NUP43_Q8NFH3_222_VPLHCVDRHPNQQHVVATGGQDGMLSIWDVR (UniProt Q8NFH3)”: the “probe-labelled cysteine peptide fold change” value was determined as 0.271.

With “OARD1_Q9Y530_24_GDLFACPK (UniProt Q9Y530)”, the “probe-labelled cysteine peptide fold change” value is -0.0589.

On to “OARD1_Q9Y530_33+38_TDSLAHCISEDCR (UniProt Q9Y530)”, for which the “probe-labelled cysteine peptide fold change” value is -0.0653.

In the case of “NXF1_Q9UBU9_373_LDGHELPPPIAFDVEAPTTLPPCK (UniProt Q9UBU9)”, the “probe-labelled cysteine peptide fold change” value was 0.0563.

In the case of “OGA_O60502_181_SFALLFDDIDHNMCAADK (UniProt O60502)”, the “probe-labelled cysteine peptide fold change” value was -0.0884.

As to “OGFOD3_Q6PK18_103_RFEGCTPR (UniProt Q6PK18)”, the “probe-labelled cysteine peptide fold change” value is -0.0988.

Turning to “OGFR_Q9NZT2_330_TCGPEHSK (UniProt Q9NZT2)”, the “probe-labelled cysteine peptide fold change” value was -0.0315.

Turning to “NUP205_Q92621_1275_LLQCLHAK (UniProt Q92621)”, the “probe-labelled cysteine peptide fold change” value was 0.0677.

For “NUP160_Q12769_480_ALQIFCR (UniProt Q12769)”, the “probe-labelled cysteine peptide fold change” value is 0.00491.

On to “NVL_O15381_803_EASICALR (UniProt O15381)”, for which the “probe-labelled cysteine peptide fold change” value was found to be 0.0326.

With “NUP205_Q92621_237_QSLAESLFAWACQSPLGK (UniProt Q92621)”, the “probe-labelled cysteine peptide fold change” value was determined as 0.114.

With “OCRL_Q01968_104_FEIPDEEHCLK (UniProt Q01968)”, the “probe-labelled cysteine peptide fold change” value is -0.00148.

As for “NT5DC2_Q9H857_475_FSDLYMASLSCLLNYR (UniProt Q9H857)”, the “probe-labelled cysteine peptide fold change” value is 0.0123.

For “NUP98_P52948_1711_HIQQVDCSGNDLEQLHIK (UniProt P52948)”, the “probe-labelled cysteine peptide fold change” value was 0.207.

With “NUP155_O75694_917_ISNQVDLSNVCAQYR (UniProt O75694)”, the “probe-labelled cysteine peptide fold change” value was -0.078.

Consider “NUBP2_Q9Y5Y2_54_VGILDVDLCGPSIPR (UniProt Q9Y5Y2)”, for which the “probe-labelled cysteine peptide fold change” value is -0.0576.

With “NUP210_Q8TEM1_109_CDAIVDLIHDIQIVSTTR (UniProt Q8TEM1)”, the “probe-labelled cysteine peptide fold change” value was found to be 0.056.

Consider “NUP155_O75694_551_LHQEDQACATCLILACSTAACDREVSAWATR (UniProt O75694)”, for which the “probe-labelled cysteine peptide fold change” value is -0.126.

Take “NUP155_O75694_974_CITDTLQELVNQSK (UniProt O75694)”: the “probe-labelled cysteine peptide fold change” value was -0.00767.

On to “OAS2_P29728_652_TRPVILDPAEPTGDVGGGDRWCWHLLAK (UniProt P29728)”, for which the “probe-labelled cysteine peptide fold change” value is -0.256.

Take “NVL_O15381_431_EICLGIPDEASR (UniProt O15381)”: the “probe-labelled cysteine peptide fold change” value was 0.0951.

On to “OCIAD1_Q9NX40_38_VFAECNDESFWFR (UniProt Q9NX40)”, for which the “probe-labelled cysteine peptide fold change” value came out at 0.123.

Consider “NUP133_Q8WUM0_641_LLLCEHAEK (UniProt Q8WUM0)”, for which the “probe-labelled cysteine peptide fold change” value is -0.0511.

Consider “NUP205_Q92621_1486_DACDGHEIGR (UniProt Q92621)”, for which the “probe-labelled cysteine peptide fold change” value came to 0.206.

On to “NUP160_Q12769_605_DVICLIK (UniProt Q12769)”, for which the “probe-labelled cysteine peptide fold change” value is 0.53.

Take “NUP98_P52948_1347_ISEACSLAQQSGDHR (UniProt P52948)”: the “probe-labelled cysteine peptide fold change” value stood at 0.227.

The experiment is the same for the next values; noted with them: 50 µM; THP-1; incubation time: 4 h.
Take “NUP153_P49790_874_CLACESAKPGTK (UniProt P49790)”: the “probe-labelled cysteine peptide fold change” value was determined as 0.0755.

Consider “NUP93_Q8N1F7_569_CVSELVIESR (UniProt Q8N1F7)”, for which the “probe-labelled cysteine peptide fold change” value was 0.186.

Turning to “OFD1_O75665_503_AIVVEHEEFESCR (UniProt O75665)”, the “probe-labelled cysteine peptide fold change” value was -0.0094.

For “NUP93_Q8N1F7_328_CGDLLAASQVVNR (UniProt Q8N1F7)”, the “probe-labelled cysteine peptide fold change” value is 0.221.

Consider “NUP205_Q92621_1216_AQIEQVIANCEHK (UniProt Q92621)”, for which the “probe-labelled cysteine peptide fold change” value was found to be 0.15.

For “OGDH_Q02218_487_VVNAPIFHVNSDDPEAVMYVCK (UniProt Q02218)”, the “probe-labelled cysteine peptide fold change” value is -0.158.

Consider “NUDT2_P50583_143_AALQEGHQFLCSIEA (UniProt P50583)”, for which the “probe-labelled cysteine peptide fold change” value is 0.104.

As for “NUMB_P49757_176_ECGVTATFDASR (UniProt P49757)”, the “probe-labelled cysteine peptide fold change” value was -0.0517.

“NUP155_O75694_1344_YVENPSQVLNCER (UniProt O75694)”: the “probe-labelled cysteine peptide fold change” value worked out at 0.0513.

“ODR4_Q5SWX8_77_AKLDNLDEEWATEHACQVSR (UniProt Q5SWX8)”: the “probe-labelled cysteine peptide fold change” value is -0.097.

Regarding “NUBP2_Q9Y5Y2_54_KVGILDVDLCGPSIPR (UniProt Q9Y5Y2)”, the “probe-labelled cysteine peptide fold change” value was -0.0444.

Regarding “NUP43_Q8NFH3_222_VPLHCVDRHPNQQHVVATGGQDGMLSIWDVR (UniProt Q8NFH3)”, the “probe-labelled cysteine peptide fold change” value is 0.0847.

On to “OARD1_Q9Y530_24_GDLFACPK (UniProt Q9Y530)”, for which the “probe-labelled cysteine peptide fold change” value was 0.131.

Consider “OARD1_Q9Y530_33+38_TDSLAHCISEDCR (UniProt Q9Y530)”, for which the “probe-labelled cysteine peptide fold change” value turned out to be 0.0103.

For “NXF1_Q9UBU9_373_LDGHELPPPIAFDVEAPTTLPPCK (UniProt Q9UBU9)”, the “probe-labelled cysteine peptide fold change” value is -0.0988.

On to “OGA_O60502_181_SFALLFDDIDHNMCAADK (UniProt O60502)”, for which the “probe-labelled cysteine peptide fold change” value came to 0.019.

Consider “OGFOD3_Q6PK18_103_RFEGCTPR (UniProt Q6PK18)”, for which the “probe-labelled cysteine peptide fold change” value was found to be 0.101.

On to “OGFR_Q9NZT2_330_TCGPEHSK (UniProt Q9NZT2)”, for which the “probe-labelled cysteine peptide fold change” value was 0.0148.

Regarding “NUP205_Q92621_1275_LLQCLHAK (UniProt Q92621)”, the “probe-labelled cysteine peptide fold change” value was found to be 0.0658.

Consider “NUP160_Q12769_480_ALQIFCR (UniProt Q12769)”, for which the “probe-labelled cysteine peptide fold change” value is -0.0596.

“NVL_O15381_803_EASICALR (UniProt O15381)”: the “probe-labelled cysteine peptide fold change” value amounted to 0.175.

As for “NUP205_Q92621_237_QSLAESLFAWACQSPLGK (UniProt Q92621)”, the “probe-labelled cysteine peptide fold change” value worked out at 0.15.

As to “OCRL_Q01968_104_FEIPDEEHCLK (UniProt Q01968)”, the “probe-labelled cysteine peptide fold change” value is 0.0505.

For the target “NT5DC2_Q9H857_475_FSDLYMASLSCLLNYR (UniProt Q9H857)”, the “probe-labelled cysteine peptide fold change” value was found to be 0.0662.

With “NUP98_P52948_1711_HIQQVDCSGNDLEQLHIK (UniProt P52948)”, the “probe-labelled cysteine peptide fold change” value was 0.108.

In the case of “NUP155_O75694_917_ISNQVDLSNVCAQYR (UniProt O75694)”, the “probe-labelled cysteine peptide fold change” value is -0.147.

For the target “NUBP2_Q9Y5Y2_54_VGILDVDLCGPSIPR (UniProt Q9Y5Y2)”, the “probe-labelled cysteine peptide fold change” value is -0.00943.

Regarding “NUP210_Q8TEM1_109_CDAIVDLIHDIQIVSTTR (UniProt Q8TEM1)”, the “probe-labelled cysteine peptide fold change” value came to 0.174.

As for “NUP155_O75694_551_LHQEDQACATCLILACSTAACDREVSAWATR (UniProt O75694)”, the “probe-labelled cysteine peptide fold change” value was -0.0532.

“NUP155_O75694_974_CITDTLQELVNQSK (UniProt O75694)”: the “probe-labelled cysteine peptide fold change” value was -0.149.

Consider “OAS2_P29728_652_TRPVILDPAEPTGDVGGGDRWCWHLLAK (UniProt P29728)”, for which the “probe-labelled cysteine peptide fold change” value is -0.0825.

Turning to “NVL_O15381_431_EICLGIPDEASR (UniProt O15381)”, the “probe-labelled cysteine peptide fold change” value was -0.136.

As for “OCIAD1_Q9NX40_38_VFAECNDESFWFR (UniProt Q9NX40)”, the “probe-labelled cysteine peptide fold change” value came to 0.262.

For the target “NUP133_Q8WUM0_641_LLLCEHAEK (UniProt Q8WUM0)”, the “probe-labelled cysteine peptide fold change” value is -0.0456.

On to “NUP205_Q92621_1486_DACDGHEIGR (UniProt Q92621)”, for which the “probe-labelled cysteine peptide fold change” value came out at 0.294.

“NUP160_Q12769_605_DVICLIK (UniProt Q12769)”: the “probe-labelled cysteine peptide fold change” value amounted to 0.432.

Take “NUP98_P52948_1347_ISEACSLAQQSGDHR (UniProt P52948)”: the “probe-labelled cysteine peptide fold change” value is 0.166.

(Values after the supplement of paper PMC12067093, “Discovery and optimisation of a covalent ligand for TRIM25 and its application to targeted protein ubiquitination” (Chemical Science, 2025).)
